Source: US20250325677A1, “STAT6 DEGRADERS” (Gilead Sciences, Inc., priority 2024, published 2025)
The structures given here were assigned with low confidence; some may be wrong.

Protein sequences, listed by entry. Tags and fused reporters are not part of them.
UniProt P42226, whole entry: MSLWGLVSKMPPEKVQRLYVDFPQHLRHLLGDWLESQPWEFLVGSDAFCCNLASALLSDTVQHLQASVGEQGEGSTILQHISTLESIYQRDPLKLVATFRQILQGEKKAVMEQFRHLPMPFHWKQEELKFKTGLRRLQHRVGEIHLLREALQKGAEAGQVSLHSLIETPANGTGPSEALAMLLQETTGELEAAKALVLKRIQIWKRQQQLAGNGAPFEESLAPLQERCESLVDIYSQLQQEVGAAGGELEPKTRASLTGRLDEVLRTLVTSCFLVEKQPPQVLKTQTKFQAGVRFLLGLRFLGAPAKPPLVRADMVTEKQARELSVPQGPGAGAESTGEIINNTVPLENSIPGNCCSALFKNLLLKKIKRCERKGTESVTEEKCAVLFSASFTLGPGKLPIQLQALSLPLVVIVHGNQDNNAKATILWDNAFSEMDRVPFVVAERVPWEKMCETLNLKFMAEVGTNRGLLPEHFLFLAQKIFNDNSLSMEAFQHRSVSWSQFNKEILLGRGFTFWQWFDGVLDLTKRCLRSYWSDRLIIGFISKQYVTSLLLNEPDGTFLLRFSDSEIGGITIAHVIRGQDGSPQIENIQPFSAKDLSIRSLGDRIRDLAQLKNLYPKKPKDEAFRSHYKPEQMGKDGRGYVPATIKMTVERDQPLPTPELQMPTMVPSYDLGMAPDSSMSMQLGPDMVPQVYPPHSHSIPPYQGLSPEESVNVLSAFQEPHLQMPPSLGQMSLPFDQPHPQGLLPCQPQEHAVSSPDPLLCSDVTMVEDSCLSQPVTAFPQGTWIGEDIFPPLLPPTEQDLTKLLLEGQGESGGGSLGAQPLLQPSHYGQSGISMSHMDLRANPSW

Target: STAT6 (Homo sapiens (Human), UniProt P42226)
Assay: STAT6 degrader assay (HiBiT, HeLa LgBiT clone 4.14)
Assay type: cell-based
Details: read-out: STAT6 degradation DC50; HeLa LgBiT clone 4.14, 4-24 h; geometric mean; given for compounds with >80% Emax
Method: This was a HiBit based assay. A HeLa cell line stably transfected with a small protein, LgBit (Large Bit) was obtained from Promega. These cells express endogenous STAT6. A small 11 amino acid gene sequence (HiBiT) was inserted in the STAT6 gene using CRISPR technology. Once STAT6 protein is expressed in the cells, the HiBiT sequence will bind the LgBit in the cells resulting in a functional NanoBiT protein, giving a luminescent tag to STAT6, see FIG. 2.
Single cell clones were prepared and the clone 4.14 was selected for the assay based on that clone showing high luminescence, high STAT6 phosphorylation upon stimulation with IL-4, and inhibition of luminescence when cells were treated with STAT6 siRNA.
HeLa LgBiT clone 4.14 cells were suspended in DMEM with 10% FCS, 1% Pen/Strep, Na-pyrovate and Hygromycin B, at a concentration of 1.25*105 cells pr mL. 5000 cells were added pr well of a 384 well plate and 20 nL of compound was added by Echo® liquid handler. NN6394A (terfenadine, a toxic compound) was added to control wells at 50 μM concentration to establish the assay window. In these wells the cells are dead which equals 100% degradation of STAT6. […]
The luminescence in the wells as a measure of non-degraded STAT6 was measured in a plate reader (BMG Pherastar FSX). The measured DC50 (in nM) was determined. […]

- DC50: 1.5 nM
SMILES: CNc1ccc(-c2ccnc3c2cc([C@H](C)N2CC=C(c4c(C)cc(C(=O)N5CCC(CN6CCN(Cc7ccc8c(c7)n(C7CC7)c(=O)n8C7CCC(=O)NC7=O)C[C@@H]6C)CC5)cc4F)CC2)n3C)cn1 (stereo partly shown)
